Experimental data from US20260053904A1.
Where a chain is given by its changes, count along the chain named. Results are given in words; binding and its absence hold for the method and conditions named. Some entries that bind do so weakly or less than the wild type.

T1: huEpCAM-M1 (Homo sapiens) (UniProt P16422)
T1 sequence (extracellular domain, looked up): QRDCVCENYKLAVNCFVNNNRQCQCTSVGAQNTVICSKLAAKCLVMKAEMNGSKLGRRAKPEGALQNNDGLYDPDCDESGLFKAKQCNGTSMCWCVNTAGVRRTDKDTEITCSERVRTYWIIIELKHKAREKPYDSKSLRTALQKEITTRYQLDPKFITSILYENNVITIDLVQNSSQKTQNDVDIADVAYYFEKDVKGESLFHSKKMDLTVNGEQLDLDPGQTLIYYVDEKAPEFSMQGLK

T2: huEpCAM-M3 (Homo sapiens) (UniProt P16422)
T2 sequence (extracellular domain, looked up): T1 sequence (extracellular domain, looked up) with R2E, D3E, V28Y

T3: huEpCAM-M6 (Homo sapiens) (UniProt P16422)
T3 sequence (extracellular domain, looked up): T1 sequence (extracellular domain, looked up) with V28Y

T4: recombinant human EpCAM extracellular domain (human) (UniProt P16422)
T4 sequence (looked up): T1 sequence (extracellular domain, looked up) with R2E, D3E

T5: human EpCAM expressed on cells (CHO, Colo205, 293) (human) (UniProt P16422)
T5 sequence (looked up): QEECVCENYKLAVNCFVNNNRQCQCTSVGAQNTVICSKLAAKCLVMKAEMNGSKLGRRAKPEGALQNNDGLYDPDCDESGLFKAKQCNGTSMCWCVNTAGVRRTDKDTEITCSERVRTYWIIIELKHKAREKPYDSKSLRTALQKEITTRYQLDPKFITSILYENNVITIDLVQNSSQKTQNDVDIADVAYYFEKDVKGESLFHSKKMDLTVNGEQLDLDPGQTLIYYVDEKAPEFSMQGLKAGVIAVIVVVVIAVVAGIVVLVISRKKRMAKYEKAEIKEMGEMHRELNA

B1: BAP-105.4-01-05 (antibody, V domains shown)
VH: EVQLVQSGAEVKKPGATVKISCKVSGYTFTSYWMHWIRQPPGKGLEWIGYIRPSTGYTEYNQKFKDRFTISRDNSKNTLYLQMNSLRAEDTAVYYCGRGDNWVGFANWGQGTLVTVSS
VL: EIVLTQSPDFQSVTPKEKVTITCSASSSISYMHWYQQKPGKAPKLLIYSTSNLASGVPDRFSGSGSGTDFTLKISRVEAEDVGVYYCHQWSTYETFGQGTKVEIK
B2: antibody of hybridoma clone 12C10F12 (antibody, V domains shown)
VH: QVQLQQSGAELAKPGASVKVSCKASGYTFTSYWMHWVKQRPGQGLEWIGYIRPSTGYTEYNQKFKDKATLTADKSSSTAYMQLSSLTFEDSAVYYCGRGDNWVGFANWGQGTLVTVSA
VL: QIVLTQSPAIMSASLGEEIALTCSASSSISYMHWYQQKSGTSPKLLIYSTSNLASGVPSRFSGSGSGTFYSLTISSVEAEDAADYFCHQWSTYHTFGSGTKLEIK

Legend:
[1] = molecular target: T1, huEpCAM-M1 (Homo sapiens); assay: ELISA on human EpCAM-ECD and its mutants; single bar per antigen, antibody concentration not given
[2] = molecular target: T2, huEpCAM-M3 (Homo sapiens); assay: as above
[3] = molecular target: T3, huEpCAM-M6 (Homo sapiens); assay: as above
[4] = molecular target: T4, recombinant human EpCAM extracellular domain (human); assay: hybridoma screening, ELISA
[5] = molecular target: T5, human EpCAM expressed on cells (CHO, Colo205, 293) (human); assay: hybridoma screening on stable CHO cells expressing human EpCAM

Binder	binding [1]	binding [2]	binding [3]	binding [4]	binding [5]
B1	binds	binds	binds	–	–
B2	–	–	–	binds	binds
